Reference: PMC12040169 (PLOS Biology, 2025)
This is one part of the list.

Each compound was assayed on T1, CTL2-GFP (C. trachomatis L2/434/Bu, GFP-expressing). Conditions: bulk GFP, single well; 28.5 h, 10 µM; inhibitor.
T1 construct: L2/434/Bu, GFP-expressing
Design: species or system HeLa; Intracellular C. trachomatis growth in HeLa cells, bulk GFP fluorescence relative to DMSO

Compared with CCCn1cc(CN2CCC(O)(c3ccc(C)cc3)CC2)cn1 [CBK282737], OC(c1cccs1)C1CCN(Cc2cnn(-c3ccccc3)c2)CC1 (stereo not drawn) [CBK307290] is lower in “% of control remaining” value: 118.807% for the first, 101.308% for the second.

First: O=C(O)c1ccc(NS(=O)(=O)c2cc(C(=O)O)ccc2Br)cc1 [CBK113164]
Second: O=C(N1CCc2ccc(S(=O)(=O)Nc3ccc(-c4nnn[nH]4)cc3)cc2C1)C(F)(F)F [CBK155437]
The “% of control remaining” value of the first is higher: 120.104% for the first, 93.1657% for the second.

Going from CC(=O)c1ccc(NC(=O)CSc2nnc(-c3ccc4ccccc4n3)s2)cc1 [CBK269205] to O=C(CSc1nnc(-c2cccnc2)n1Cc1ccccc1)Nc1ccc(F)cc1 [CBK267528], the “% of control remaining” value falls from 109.255% to 100.364%.

Going from CCOC(=O)c1cnc2ccc(C(CCOCc3ccccc3)OCc3ccccc3)cc2c1O (stereo not drawn) [CBK018405] to O=C(CCc1ccccc1)NC(c1cccc([N+](=O)[O-])c1)c1c(O)ccc2ccccc12 (stereo not drawn) [CBK265278], the “% of control remaining” value falls from 128.599% to 100.538%.

Going from Cc1ccc2c(c1)C1(CC(=O)N(CC(=O)O)C1=O)C(=O)N2C (stereo not drawn) [CBK076104] to CN1C(=O)CC2(C1=O)C(=O)N(CC(=O)c1ccccc1)c1ccc(F)cc12 (stereo not drawn) [CBK075420], the “% of control remaining” value rises from 111.656% to 157.015%.

Going from CCC(C)(C)c1ccc(S(=O)(=O)N2CCCN(Cc3cccc4c3OCO4)CC2)cc1 [CBK062872] to CC1CCN(S(=O)(=O)c2ccc(Oc3ccc([N+](=O)[O-])cc3)cc2)CC1 [CBK261774], the “% of control remaining” value rises from 104.401% to 111.287%.

Going from Cn1nc(C(=O)N2Cc3cnn(Cc4ccc(F)cc4)c3C2)ccc1=O [CBK306855] to CCn1c(=O)n(CC(=O)NCc2ccc(F)cc2)c2cccnc21 [CBK283901], the “% of control remaining” value falls from 151.641% to 109.248%.

First: O=C(CSc1nnc2ccc(-c3ccccc3)nn12)NCc1ccccc1 [CBK287677]
Second: O=C(O)CC(NCc1ccccc1)C(=O)Nc1cccc(F)c1 (stereo not drawn) [CBK266956]
The “% of control remaining” value of the first is lower: 81.6965% for the first, 139.482% for the second.

Going from C=CCNC(=O)C1CN(C)CC12CCc1ccccc1C(=O)N2 (stereo not drawn) [CBK282401] to O=C(O)C1CCC(CNC(=O)C2Cc3ccccc3CN2)CC1 (stereo not drawn) [CBK286745], the “% of control remaining” value falls from 158.323% to 128.511%.

Going from COc1ccc2[nH]cc(CC(=O)N3CCCC4(CCN(C(=O)c5cc(F)c(F)cc5F)C4)C3)c2c1 (stereo not drawn) [CBK131562] to O=C(CN1CCCC2(CCN(C(=O)c3cc(F)c(F)cc3F)C2)C1)Nc1ccc(F)c(Cl)c1 (stereo not drawn) [CBK132008], the “% of control remaining” value falls from 136.77% to 113.813%.

First: CCc1[nH]c2ccc(C(=O)NC3CCCOC3)cc2c1C (stereo not drawn) [CBK283247]
Second: CCOC(=O)C1CCCN(Cc2nc3cc(Cl)ccc3c(=O)[nH]2)C1 (stereo not drawn) [CBK306198]
The “% of control remaining” value of the first is higher: 127.44% for the first, 122.809% for the second.

Compared with COc1ccc(C(Nc2ccnc(OC)c2C#N)[C@H]2C[C@@H](O)C2)cn1 (stereo partly drawn) [CBK306980], COc1ccc(C(C)C)cc1-c1cc(NCCc2cccnc2)n2nccc2n1 [CBK037097] is higher in “% of control remaining” value: 117.286% for the first, 156.426% for the second.

Going from CC(C)Cc1ccc(C(C)c2nc3ccccc3[nH]2)cc1 (stereo not drawn) [CBK261484] to Fc1ccc(OCCNC2CCc3[nH]c4ccccc4c3C2)cc1 (stereo not drawn) [CBK107791], the “% of control remaining” value falls from 104.057% to 102.702%.

Going from O=C(Nc1cccc(Cl)c1)C1CCC(C(=O)Nc2cccc(Cl)c2)CC1 (stereo not drawn) [CBK269136] to O=C(CN1CCOCC1)Nc1ccc(S(=O)(=O)Nc2cc(Cl)cc(Cl)c2)cc1 [CBK001239], the “% of control remaining” value falls from 131.931% to 100.94%.

Going from O=C(c1ccccc1NS(=O)(=O)c1cccc2cccnc12)N1CCOCC1 [CBK043338] to O=C(Cc1ccccc1)N/N=C/c1cccc2cccnc12 [CBK262778], the “% of control remaining” value rises from 93.4861% to 116.117%.

Going from CCOC(=O)CC1C(=O)NCCN1Cc1cccc(C)n1 (stereo not drawn) [CBK269965] to CCN(CC)C(=O)CN1CC=C(c2ccc(C)o2)CC1 [CBK283497], the “% of control remaining” value rises from 97.1216% to 117.456%.

First: CCN(C(C)COC)S(=O)(=O)c1ccc(-n2ncc(Cl)c(Cl)c2=O)cc1 (stereo not drawn) [CBK305662]
Second: Cc1ccc(S(=O)(=O)N(C)CC(=O)O/N=C(\N)c2cccnc2)cc1 [CBK266717]
The “% of control remaining” value of the first is lower: 28.501% for the first, 116.91% for the second.

Compared with CN(C)c1ccc(C(=O)N2CCC(c3cc4ncccc4[nH]3)CC2)cc1 [CBK284459], O=C(c1cc[nH]n1)N1CCC(c2cc3ccccc3cn2)CC1 [CBK284892] is lower in “% of control remaining” value: 127.944% for the first, 104.464% for the second.

Going from O=C1c2ccccc2NC(c2cccc(O)c2)N1O (stereo not drawn) [CBK288426] to O=C(O)c1cc(-c2cccc(O)c2)nc2ccc(Br)cc12 [CBK261777], the “% of control remaining” value falls from 107.405% to 100%.

First: S=C1NCN(Cc2ccccc2)CN1c1ccccc1 [CBK263536]
Second: OC(COCc1ccc(Cl)cc1)CN1CCN(C(c2ccccc2)c2ccccc2)CC1 (stereo not drawn) [CBK074857C]
The “% of control remaining” value of the first is lower: 100% for the first, 122.115% for the second.

First: O=C(Oc1c(Cl)cc(Cl)c2cccnc12)c1cc(S(=O)(=O)N2CCCCC2)ccc1Cl [CBK264518]
Second: Cc1ccc(S(=O)(=O)N2CCN(C(=O)C3CCCCC3C(=O)O)CC2)cc1C (stereo not drawn) [CBK286936]
The “% of control remaining” value of the first is lower: 100.961% for the first, 134.964% for the second.

Compared with COCCNC(=O)NCCCn1c(-c2ccncc2)nc2cccnc21 [CBK288581], CCn1nc2c(c1C(=O)Nc1cccc(CCc3ccncc3)c1)CCCC2 [CBK285561] is lower in “% of control remaining” value: 134.482% for the first, 91.4121% for the second.

Compared with Cc1cc(C)n(CC(O)CN(Cc2ccco2)CC2CC=CCC2)n1 (stereo not drawn) [CBK283159], CC(C)[C@@H](Cn1nc(C2CC2)ccc1=O)NC(=O)c1ccco1 [CBK282321] is higher in “% of control remaining” value: 123.502% for the first, 130.183% for the second.

First: CCOCCC(=O)NC1CCCc2nc(N3CCC(CO)CC3)ncc21 (stereo not drawn) [CBK306624]
Second: CCCCNC(=O)OC1CCN(CCc2ccccc2)CC1 [CBK022839C]
The “% of control remaining” value of the first is lower: 95.0336% for the first, 125.699% for the second.

Going from CCOc1ccc(OCC)c(S(=O)(=O)n2nc(C)cc2C)c1 [CBK264024] to Cc1ccc(OC(C)C(=O)NCCCN2CCOCC2)cc1C (stereo not drawn) [CBK268109], the “% of control remaining” value rises from 100% to 132.497%.

Going from Cc1cc(NC(=O)c2ccco2)nc2c1c(=O)oc1ccccc12 [CBK291124] to Cc1cnc(CNC(=O)c2cnoc2-c2ccccc2)cn1 [CBK154926], the “% of control remaining” value rises from 116.003% to 127.204%.

First: N#CCn1c(-c2nonc2N)nc2ccccc21 [CBK050974]
Second: CSCc1nc2ccccc2n1CC(=O)N(CCC#N)Cc1ccco1 [CBK305440]
The “% of control remaining” value of the first is higher: 118.689% for the first, 109.547% for the second.

Compared with COC(=O)c1sccc1S(=O)(=O)n1ccc2ccc(Br)cc21 [CBK003528], COc1cc(F)ccc1-c1ccc2ccc(NC(=O)C(C)C)nc2n1 [CBK073666] is higher in “% of control remaining” value: 115.531% for the first, 188.351% for the second.

Compared with O=C(O)[C@H]1CN(C(=O)CCc2ccco2)C[C@@H]1c1ccc(F)cc1 [CBK283722], Nc1ncc(-c2cccc(/C=C/C(=O)O)c2)nc1NCc1ccco1 [CBK063691] is higher in “% of control remaining” value: 124.359% for the first, 215.421% for the second.

First: O=C1c2ccccc2C(=O)N1Cc1nc2ccccc2c(=O)n1CCN1CCOCC1 [CBK268472]
Second: O=C(NCCN1CCOCC1)N1CCN(c2ccccc2)CC1 [CBK155180]
The “% of control remaining” value of the first is lower: 105.472% for the first, 135.514% for the second.

Compared with N#Cc1c2c(c3nncn3c1Nc1ccccc1)CCCC2 [CBK288197], O=C(Nc1cccc(N2CCNCC2)c1)c1cnc2ccccc2c1 [CBK029415T] is higher in “% of control remaining” value: 111.249% for the first, 113.415% for the second.

Compared with O=S(=O)(NCc1nc(-c2ccccc2)no1)c1ccc(F)cc1 [CBK268198], O=C(CC1S/C(=N/N=C/c2ccc(-c3ccc(Cl)c([N+](=O)[O-])c3)o2)NC1=O)Nc1ccccc1 (stereo not drawn) [CBK264473] is lower in “% of control remaining” value: 105.322% for the first, 100% for the second.

Going from CCNC(=O)N1Cc2nc[nH]c2C[C@H]1C(=O)NCc1ccc(OC)cc1 [CBK288973] to COC(=O)NCCc1c[nH]c2ccc(OC)cc12 [CBK084597], the “% of control remaining” value rises from 123.012% to 157.066%.

Going from CNCC(=O)N1c2ccccc2CCc2ccc(NC(=O)OC)cc21 [CBK261285C] to O=C(NCCc1ccc(O)cc1)C1(c2ccccc2)CCCC1 [CBK149535], the “% of control remaining” value rises from 95.3969% to 96.6221%.

Compared with CC1(C)C[C@H](NC2CCOCC2)[C@@]2(CCC(=O)N3CCOCC3)CC[C@](C)(O)C[C@@H]12 [CBK289041], CC(C)(C)CC(NC(=O)C1CCCN(S(C)(=O)=O)C1)c1ccccc1 (stereo not drawn) [CBK304563] is lower in “% of control remaining” value: 144.158% for the first, 111.445% for the second.

Going from CC(C)Oc1ccc(C(=O)C2=C(O)C(=O)N(CCN(C)C)C2c2ccccc2F)cc1 (stereo not drawn) [CBK264886] to CN(C)CCN(C)c1cc(-c2ccc(F)c(Cl)c2)nc2ccnn12 [CBK037230], the “% of control remaining” value rises from 115.16% to 177.411%.

First: Cc1ccc(N2C(=O)/C(=C/c3ccc(O)c(O)c3)SC2=S)cc1C [CBK262756]
Second: Cc1cc2nc(/C(C#N)=C/c3cc(C)n(-c4ccc(C(=O)O)cc4)c3C)[nH]c2cc1C [CBK269105]
The “% of control remaining” value of the first is lower: 108.449% for the first, 139.485% for the second.

Compared with CCOC(=O)c1cnn(-c2cc(Oc3ccccc3)ncn2)c1N [CBK098284], O=C(O)c1cccc(-n2nnnc2SCc2ccccn2)c1 [CBK266744] is lower in “% of control remaining” value: 101.582% for the first, 79.9222% for the second.

First: CCc1nnc(SCc2ccc(CSc3nnc(CC)n3N)cc2)n1N [CBK265689]
Second: CC(C)(C)C(Cn1cccn1)NC(=O)CCC(=O)O (stereo not drawn) [CBK286897]
The “% of control remaining” value of the first is lower: 93.8817% for the first, 115.331% for the second.
